Assay results from the supplement of paper PMC6078165.
The reference is the same well before dosing, and untreated signal decays as well.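 Labels refer to human fibroblasts, largely primary: uterine (C12385, HUF), lung (H6013), bone (Hs27A), adrenal (HADF), skin (WS1), plus mammary HMF and breast cancer-associated Hs343T. Cancer lines are basal-like or mesenchymal-like triple-negative breast cancer. The paper counts as hits responses shifting over 3x the replicate standard deviation. The tissue of the other fibroblasts is not given here.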

Test system: BT20
Assay: relative JC-1 red fluorescence (viability) vs pre-drug, coculture with fibroblast (fraction); higher = more viable cancer cells
Description: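 JC-1 labelled TNBC cells cocultured 1:1 (1,500 cells each) with CellTrace Violet stained primary or stromal fibroblasts in 384-well plates in FluoroBrite medium, treated with one of 42 anticancer drugs at 0.1, 1, 10 or 100 uM. JC-1 red fluorescence (mitochondrial integrity in cancer cells only) was read by plate reader every 8 h for 72 h. Values are normalised to each well's pre-drug value. The stock of one drug was tenfold lower, so its dose labels may be too high.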

Nc1ccn([C@@H]2O[C@H](CO)[C@@H](O)C2(F)F)c(=O)n1 [Gemcitabine]
relative JC-1 red fluorescence
Conditions	8 h	16 h	24 h	32 h	40 h	48 h	56 h	64 h	72 h
0.1 µM, coculture fibroblast: C12385	0.916	0.855	0.765	0.711	0.652	0.615	0.585	0.557	0.546
0.1 µM, coculture fibroblast: H6013	0.87	0.921	0.836	0.883	0.85	0.836	0.848	0.843	0.836
0.1 µM, coculture fibroblast: H6019	0.8856	0.8273	0.817	0.77	0.73	0.72	0.694	0.675	0.664
0.1 µM, coculture fibroblast: H6076	0.811	0.903	0.823	0.78	0.743	0.719	0.691	0.692	0.662
0.1 µM, coculture fibroblast: H6231	0.785	0.952	0.823	0.762	0.707	0.657	0.629	0.612	0.575
0.1 µM, coculture fibroblast: HADF	0.903	0.8548	0.7772	0.731	0.687	0.651	0.639	0.625	0.602
0.1 µM, coculture fibroblast: HCFa	0.9508	0.831	0.788	0.715	0.653	0.605	0.574	0.554	0.522
0.1 µM, coculture fibroblast: HCPF	0.772	0.929	0.845	0.7917	0.75102	0.703	0.661	0.639	0.622
0.1 µM, coculture fibroblast: HHSteC	0.94	0.829	0.8073	0.729	0.673	0.641	0.615	0.592	0.562
0.1 µM, coculture fibroblast: HMF	0.806	0.907	0.821	0.775	0.739	0.698	0.668	0.647	0.625
0.1 µM, coculture fibroblast: HPFa	0.833	0.781	0.734	0.816	0.798	0.773	0.777	0.773	0.733
0.1 µM, coculture fibroblast: HUF	0.916	0.801	0.787	0.726	0.66	0.607	0.581	0.555	0.537
0.1 µM, coculture fibroblast: Hs5	0.736	0.915	0.848	0.81	0.765	0.733	0.71	0.678	0.663
0.1 µM, coculture fibroblast: Hs27A	0.862	0.826	0.795	0.852	0.813	0.784	0.819	0.749	0.803
0.1 µM, coculture fibroblast: Hs343T	0.9978	0.8803	0.77	0.723	0.675	0.629	0.591	0.583	0.558
0.1 µM, coculture fibroblast: WS1	0.873	0.783	0.727	0.654	0.605	0.576	0.544	0.515	0.51
1 µM, coculture fibroblast: C12385	0.894	0.804	0.774	0.715	0.671	0.647	0.629	0.611	0.596
1 µM, coculture fibroblast: H6013	0.907	0.839	0.823	0.758	0.697	0.687	0.698	0.694	0.694
1 µM, coculture fibroblast: H6019	0.8418	0.737	0.714	0.638	0.574	0.551	0.517	0.484	0.46
1 µM, coculture fibroblast: H6076	0.9884	0.8645	0.778	0.738	0.7	0.66	0.641	0.637	0.623
1 µM, coculture fibroblast: H6231	0.902	0.927	0.794	0.729	0.678	0.6246	0.5706	0.541	0.517
1 µM, coculture fibroblast: HADF	0.95	0.863	0.877	0.822	0.792	0.759	0.752	0.741	0.724
1 µM, coculture fibroblast: HCFa	0.888	0.845	0.811	0.756	0.732	0.712	0.699	0.682	0.655
1 µM, coculture fibroblast: HCPF	0.893	0.816	0.777	0.7269	0.692	0.649	0.622	0.605	0.568
1 µM, coculture fibroblast: HHSteC	0.917	0.847	0.85	0.78	0.742	0.716	0.7	0.667	0.65
1 µM, coculture fibroblast: HMF	0.8351	0.839	0.749	0.688	0.642	0.597	0.574	0.555	0.527
1 µM, coculture fibroblast: HPFa	0.925	0.872	0.903	0.829	0.828	0.801	0.812	0.799	0.778
1 µM, coculture fibroblast: HUF	0.91456	0.8143	0.797	0.72	0.684	0.65	0.637	0.624	0.606
1 µM, coculture fibroblast: Hs5	0.866	0.873	0.807	0.755	0.731	0.7	0.677	0.664	0.646
1 µM, coculture fibroblast: Hs27A	0.723	0.948	0.871	0.842	0.807	0.797	0.793	0.793	0.771
1 µM, coculture fibroblast: Hs343T	0.932	0.827	0.7503	0.682	0.627	0.592	0.551	0.544	0.524
1 µM, coculture fibroblast: WS1	0.852	0.738	0.7116	0.644	0.6012	0.574	0.546	0.528	0.52
10 µM, coculture fibroblast: C12385	0.913	0.804	0.749	0.686	0.628	0.591	0.557	0.525	0.508
10 µM, coculture fibroblast: H6013	0.955	0.858	0.806	0.72	0.657	0.63	0.63	0.618	0.618
10 µM, coculture fibroblast: H6019	0.866	0.788	0.721	0.634	0.56	0.521	0.4772	0.447	0.436
10 µM, coculture fibroblast: H6076	0.955	0.89	0.796	0.741	0.69	0.645	0.618	0.601	0.585
10 µM, coculture fibroblast: H6231	0.8021	0.971	0.841	0.781	0.737	0.681	0.653	0.611	0.58
10 µM, coculture fibroblast: HADF	0.785	0.8688	0.817	0.7777	0.738	0.698	0.673	0.645	0.618
10 µM, coculture fibroblast: HCFa	0.946	0.855	0.785	0.7211	0.649	0.588	0.545	0.501	0.463
10 µM, coculture fibroblast: HCPF	0.871	0.92	0.853	0.791	0.751	0.7106	0.6654	0.652	0.603
10 µM, coculture fibroblast: HHSteC	0.947	0.8772	0.883	0.814	0.79	0.759	0.748	0.731	0.712
10 µM, coculture fibroblast: HMF	0.97	0.892	0.793	0.745	0.6978	0.65	0.604	0.57	0.543
10 µM, coculture fibroblast: HPFa	0.966	0.883	0.855	0.775	0.746	0.696	0.666	0.644	0.616
10 µM, coculture fibroblast: HUF	0.9198	0.792	0.756	0.668	0.628	0.579	0.539	0.506	0.487
10 µM, coculture fibroblast: Hs5	0.726	0.945	0.85	0.803	0.756	0.724	0.697	0.668	0.655
10 µM, coculture fibroblast: Hs27A	0.906	0.863	0.927	0.917	0.896	0.875	0.871	0.853	0.824
10 µM, coculture fibroblast: Hs343T	0.92	0.9	0.8013	0.751	0.688	0.63	0.575	0.546	0.509
10 µM, coculture fibroblast: WS1	0.8608	0.7653	0.719	0.639	0.586	0.553	0.512	0.477	0.459
100 µM, coculture fibroblast: C12385	0.8811	0.788	0.727	0.672	0.623	0.602	0.572	0.535	0.513
100 µM, coculture fibroblast: H6013	0.949	0.891	0.83	0.762	0.699	0.678	0.669	0.65	0.641
100 µM, coculture fibroblast: H6019	0.856	0.775	0.739	0.668	0.623	0.608	0.574	0.55	0.533
100 µM, coculture fibroblast: H6076	0.96107	0.853	0.8023	0.7758	0.76	0.729	0.723	0.739	0.716
100 µM, coculture fibroblast: H6231	0.775	0.929	0.793	0.722	0.68	0.632	0.588	0.563	0.533
100 µM, coculture fibroblast: HADF	0.968	0.8761	0.873	0.841	0.832	0.807	0.804	0.792	0.771
100 µM, coculture fibroblast: HCFa	0.9719	0.888	0.842	0.802	0.74	0.71	0.684	0.666	0.64
100 µM, coculture fibroblast: HCPF	0.776	0.938	0.856	0.8046	0.764	0.721	0.679	0.647	0.602
100 µM, coculture fibroblast: HHSteC	0.918	0.82	0.781	0.705	0.645	0.615	0.581	0.55	0.519
100 µM, coculture fibroblast: HMF	0.976	0.8769	0.7808	0.722	0.6832	0.6394	0.601	0.5673	0.531
100 µM, coculture fibroblast: HPFa	0.9492	0.861	0.856	0.769	0.757	0.727	0.72	0.706	0.674
100 µM, coculture fibroblast: HUF	0.8916	0.7971	0.75619	0.674	0.617	0.57	0.548	0.526	0.513
100 µM, coculture fibroblast: Hs5	0.927	0.9	0.8277	0.7774	0.743	0.7117	0.686	0.661	0.633
100 µM, coculture fibroblast: Hs27A	0.864	0.724	0.877	0.884	0.837	0.816	0.7925	0.769	0.737
100 µM, coculture fibroblast: Hs343T	0.893	0.876	0.79	0.717	0.664	0.616	0.5646	0.534	0.497
100 µM, coculture fibroblast: WS1	0.879	0.794	0.7569	0.674	0.619	0.591	0.559	0.529	0.514
